Article PMC5070770
No constants are given. Whether binding was seen depends on the method and setting. In cells and extracts the contact can be indirect. Some results given as binding are weak or reduced against the parent protein; the word gives no strength.

The chains behind the UniProt entries cited, without tags or fusion partners.
UniProt Q04725: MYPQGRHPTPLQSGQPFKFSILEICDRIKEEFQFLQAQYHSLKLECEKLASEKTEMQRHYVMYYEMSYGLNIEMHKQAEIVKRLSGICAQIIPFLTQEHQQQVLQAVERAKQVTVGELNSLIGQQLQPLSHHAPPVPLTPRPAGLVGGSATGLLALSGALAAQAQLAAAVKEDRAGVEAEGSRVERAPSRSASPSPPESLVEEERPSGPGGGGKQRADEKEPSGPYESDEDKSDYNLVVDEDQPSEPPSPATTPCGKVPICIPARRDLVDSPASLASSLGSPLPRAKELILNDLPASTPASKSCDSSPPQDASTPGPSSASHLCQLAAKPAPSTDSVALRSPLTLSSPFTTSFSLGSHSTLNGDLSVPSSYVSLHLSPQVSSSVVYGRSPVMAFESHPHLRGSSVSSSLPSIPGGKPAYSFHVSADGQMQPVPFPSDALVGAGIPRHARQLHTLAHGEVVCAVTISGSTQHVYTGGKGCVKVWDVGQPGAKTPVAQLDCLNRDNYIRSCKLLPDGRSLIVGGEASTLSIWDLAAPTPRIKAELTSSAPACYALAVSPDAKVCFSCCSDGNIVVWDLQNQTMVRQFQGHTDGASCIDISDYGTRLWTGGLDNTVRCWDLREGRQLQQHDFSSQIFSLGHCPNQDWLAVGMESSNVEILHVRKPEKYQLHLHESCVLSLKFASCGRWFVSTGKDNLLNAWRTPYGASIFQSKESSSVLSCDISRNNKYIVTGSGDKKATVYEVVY
UniProt Q9UJU2: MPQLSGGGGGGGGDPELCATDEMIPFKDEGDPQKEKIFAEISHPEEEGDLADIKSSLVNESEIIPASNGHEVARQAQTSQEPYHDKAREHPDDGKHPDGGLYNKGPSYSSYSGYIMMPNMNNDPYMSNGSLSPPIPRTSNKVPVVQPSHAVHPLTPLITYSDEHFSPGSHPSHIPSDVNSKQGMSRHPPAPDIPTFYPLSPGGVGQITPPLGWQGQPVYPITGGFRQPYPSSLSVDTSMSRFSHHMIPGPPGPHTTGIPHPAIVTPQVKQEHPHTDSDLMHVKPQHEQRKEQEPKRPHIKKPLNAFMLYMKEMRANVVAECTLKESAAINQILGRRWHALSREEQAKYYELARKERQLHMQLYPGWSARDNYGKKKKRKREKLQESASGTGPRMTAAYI

Biological target: Transducin-like enhancer protein 2 (TLE2), SF-tagged (UniProt Q04725)
Assay: co-IP

- binding: binds
Substance: Lymphoid enhancer-binding factor 1 (LEF1), HA-tagged (from UniProt Q9UJU2 1-399)
